Measurements as given in PMC11316798, “Signaling by a bacterial phytochrome histidine kinase involves a conformational cascade reorganizing the dimeric photoreceptor” (Nature Communications, 2024).

Molecular target: T1, Pseudomonas syringae bacteriophytochrome photoreceptor BphP1 (PsBphP1), full length, assembled with biliverdin (Pseudomonas syringae) (UniProt Q885D3)
T1 sequence (chain, biliverdin (BV) covalently linked via a thioether linkage to Cys16): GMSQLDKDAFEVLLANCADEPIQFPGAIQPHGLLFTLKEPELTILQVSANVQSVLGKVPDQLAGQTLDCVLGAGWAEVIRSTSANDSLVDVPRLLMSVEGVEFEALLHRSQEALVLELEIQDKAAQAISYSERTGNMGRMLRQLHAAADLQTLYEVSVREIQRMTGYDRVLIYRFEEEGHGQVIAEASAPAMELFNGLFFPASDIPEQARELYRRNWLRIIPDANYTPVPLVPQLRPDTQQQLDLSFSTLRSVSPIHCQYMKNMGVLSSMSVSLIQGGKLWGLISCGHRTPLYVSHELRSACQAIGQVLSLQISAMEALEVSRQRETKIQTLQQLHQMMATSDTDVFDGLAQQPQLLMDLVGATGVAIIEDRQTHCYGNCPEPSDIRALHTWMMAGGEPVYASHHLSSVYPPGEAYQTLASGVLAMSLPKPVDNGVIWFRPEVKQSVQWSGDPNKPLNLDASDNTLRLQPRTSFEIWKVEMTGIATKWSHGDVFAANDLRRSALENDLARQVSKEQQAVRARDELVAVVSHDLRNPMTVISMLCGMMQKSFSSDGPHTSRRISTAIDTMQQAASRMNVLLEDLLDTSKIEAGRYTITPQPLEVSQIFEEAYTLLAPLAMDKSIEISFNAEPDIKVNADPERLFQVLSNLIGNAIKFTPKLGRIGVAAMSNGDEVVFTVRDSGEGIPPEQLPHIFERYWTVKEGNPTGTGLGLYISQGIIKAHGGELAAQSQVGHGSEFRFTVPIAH
Assay: SEC; PsBphP1 (3 mg mL^-1) as Pr or Pfr mixed with the response regulator (3 mg mL^-1), incubated 10 min, without ATP; Superdex 200 Increase, 22 °C, 175 mM KSCN buffer pH 7.5 with 5 mM MgCl2 and 0.2 mM Na2EDTA; both purified

## Deinococcus radiodurans BphR response regulator/phosphatase (DrBphR)
  binding: no binding (tested: 3 mg mL^-1 each)

Results are given in words; binding and its absence hold for the method and conditions named.
